Test: Caco-2 cell monolayer bidirectional transport study
Format: in vitro ADME
Details: human, Caco-2, pH 7.4

CC(C)NCC(O)COc1ccc(CC(N)=O)cc1 (stereo not drawn) [Atenolol]
Papp A→B at 2 h, 100 µM: 3.1 ± 0.01 ×10⁻⁶ cm/s
Papp B→A at 2 h, 100 µM: 1.9 ± 0.01 ×10⁻⁶ cm/s
efflux ratio at 2 h, 100 µM: 0.61

— publication PMC4111571 (Pharmaceutical research, 2012)
